{
  "source": "PubChem BioAssay AID445",
  "about": "(National Center for Advancing Translational Sciences (NCATS), 2006)",
  "experiment": "IkB Signaling",
  "details": "ABC-DLBCL IkBa-CBG/CBR dual luciferase ratio (green luciferase fused to IkBa over red control in OCI-Ly3 lymphoma cells), 4 h",
  "procedure,_shortened": "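In this assay, an IκBα–CBG68 fusion accumulates when IKK-driven degradation is blocked; native CBR normalizes for cell number. OCI-Ly3 cells were treated 4 h with compound and doxycycline, then green and red light read after Chroma-Glo addition.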",
  "key": {"[1]": {"details": "measured here: control luc red channel unless noted"}},
  "note": "The list shows a part of the results. These are further read-outs of the screen, such as a control signal, another cell line or another target. No call is given for them. The list favours compounds with an active or inconclusive main result. Words in brackets tell the shape of the fitted curve; partial curves, single points and poor fits give uncertain potencies.",
  "data": [
    {"smiles": "CCOC(=O)N1CCN(Cc2nc3cc(NC(=O)c4ccc(OC)cc4)ccc3n2C(C)C)CC1", "values": [
      {"measurement": "AC50", "setting": "[1]", "result": "15.8 µM [falling, single point]"}
    ]},
    {"smiles": "Nc1nonc1-c1nc2ccccc2n1Cc1cccc(Cl)c1", "values": [
      {"measurement": "AC50", "setting": "[1]", "result": "1 µM [rising, full curve, poor fit]"}
    ]},
    {"smiles": "CC(C)c1ccc(NC(=O)c2ccc(F)c(S(=O)(=O)N3CCc4ccccc4C3)c2)cc1", "values": [
      {"measurement": "AC50", "setting": "[1]", "result": "10 µM [falling, partial curve]"}
    ]},
    {"smiles": "Cc1ccc(CN(C(=O)c2ccccc2F)c2ccccn2)o1", "values": [
      {"measurement": "AC50", "setting": "[1]", "result": "25.1 µM [falling, single point]"}
    ]},
    {"smiles": "O=C(c1cccn2c(=O)c3cc(Cl)ccc3nc12)N1CCN(c2ccccc2F)CC1", "values": [
      {"measurement": "AC50", "setting": "[1]", "result": "25.1 µM [falling, single point]"}
    ]},
    {"smiles": "COc1ccc(Cl)cc1NC(=O)Cn1cc(C(=O)c2ccc(C)cc2)c(=O)c2ccc(C)nc21", "values": [
      {"measurement": "AC50", "setting": "[1]", "result": "7.94 µM [falling, partial curve]"}
    ]},
    {"smiles": "CCOc1ccc(C(=O)Nc2cccc(C(=O)OCc3cc(=O)n4nc(C5CC5)sc4n3)c2)cc1", "values": [
      {"measurement": "AC50", "setting": "[1]", "result": "0.126 µM [falling, full curve]"}
    ]},
    {"smiles": "CCOC(=O)c1ccccc1NC(=O)CSc1nc(=O)[nH]c2c1CCC2", "values": [
      {"measurement": "AC50", "setting": "[1]", "result": "12.6 µM [falling, single point]"}
    ]},
    {"smiles": "COc1ccc(CCNC(=O)c2c(O)nc3ccccn3c2=O)cc1", "values": [
      {"measurement": "AC50", "setting": "[1]", "result": "39.8 µM [falling, single point]"}
    ]},
    {"smiles": "Cc1cc(NC(=O)C2CCN(S(=O)(=O)c3cccc4nsnc34)CC2)ccc1Br", "values": [
      {"measurement": "AC50", "setting": "[1]", "result": "2 µM [falling, partial curve]"}
    ]},
    {"smiles": "CCN=c1sc(C(=O)NCCc2ccccc2)cc(=O)n1CC", "values": [
      {"measurement": "AC50", "setting": "[1]", "result": "25.1 µM [rising, partial curve] [measured here: IkB-luc green channel]"}
    ]},
    {"smiles": "Cc1cccc(C(=O)N2c3nc(-c4ccco4)nn3C3(CCCCC3)[C@@H]3CCCC[C@@H]32)c1", "values": [
      {"measurement": "AC50", "setting": "[1]", "result": "12.6 µM [falling, partial curve]"}
    ]},
    {"smiles": "Cc1cccc(-n2ncc3c(N4CCCC(C)C4)ncnc32)c1", "note": "(stereo not given)", "values": [
      {"measurement": "AC50", "setting": "[1]", "result": "15.8 µM [falling, partial curve, poor fit]"}
    ]},
    {"smiles": "C#CCOc1ccc(C2CC(=O)Nc3c2c(C)nn3-c2nc(C)cc(C)n2)cc1", "note": "(stereo not given)", "values": [
      {"measurement": "AC50", "setting": "[1]", "result": "31.6 µM [falling, single point]"}
    ]},
    {"smiles": "O=c1ccc(-c2ccccc2)nn1Cc1ccc(F)cc1Cl", "values": [
      {"measurement": "AC50", "setting": "[1]", "result": "2.51 µM [falling, partial curve]"}
    ]},
    {"smiles": "Cc1ccc(S(=O)(=O)c2c(C)nn(C(C)(C)C)c2OC(=O)c2ccco2)cc1", "values": [
      {"measurement": "AC50", "setting": "[1]", "result": "10 µM [falling, partial curve]"}
    ]},
    {"smiles": "CCc1[nH]nc2c1C1(C(=O)N(Cc3ccccc3)c3ccccc31)C(C#N)=C(N)O2", "note": "(stereo not given)", "values": [
      {"measurement": "AC50", "setting": "[1]", "result": "15.8 µM [falling, partial curve]"}
    ]},
    {"smiles": "CCCN1CCN(c2ncnc3sc(C(=O)Nc4c(C)cc(C)cc4C)c(C)c23)CC1", "values": [
      {"measurement": "AC50", "setting": "[1]", "result": "0.316 µM [falling, full curve, poor fit]"}
    ]},
    {"smiles": "CCC1CN(S(=O)(=O)c2cc(-c3onc(C)c3C)ccc2C)c2cc(Cl)ccc2O1", "note": "(stereo not given)", "values": [
      {"measurement": "AC50", "setting": "[1]", "result": "1.58 µM [falling, full curve]"}
    ]},
    {"smiles": "O=C(c1ccc2c(c1)OCCO2)C1CCN(C(=O)c2ccc(F)c(F)c2)CC1", "values": [
      {"measurement": "AC50", "setting": "[1]", "result": "31.6 µM [falling, single point]"}
    ]},
    {"smiles": "N#Cc1ccsc1NC(=O)CSc1ncnc2ccccc12", "values": [
      {"measurement": "AC50", "setting": "[1]", "result": "20 µM [falling, single point]"}
    ]},
    {"smiles": "COc1cc(NC(=O)C(CC(C)C)NS(=O)(=O)c2ccc3c(c2)CCN3C(C)=O)cc(OC)c1", "note": "(stereo not given)", "values": [
      {"measurement": "AC50", "setting": "[1]", "result": "20 µM [falling, single point]"}
    ]},
    {"smiles": "CC(C)c1ccc2oc(-c3ccc(NC(=O)c4cccc(Br)c4)cc3)nc2c1", "values": [
      {"measurement": "AC50", "setting": "[1]", "result": "12.6 µM [falling, partial curve]"}
    ]},
    {"smiles": "CCOc1ccc2nc(N3CCCC(C(=O)Nc4cc(Cl)c(OC)cc4OC)C3)sc2c1", "note": "(stereo not given)", "values": [
      {"measurement": "AC50", "setting": "[1]", "result": "0.126 µM [falling, partial curve, poor fit]"}
    ]},
    {"smiles": "CCCCCCSc1nnc2c(n1)OC(C)Nc1ccc(Br)cc1-2", "note": "(stereo not given)", "values": [
      {"measurement": "AC50", "setting": "[1]", "result": "39.8 µM [falling, single point]"}
    ]},
    {"smiles": "CCOC(=O)c1ccccc1NC(=O)COc1ccccc1-c1nnc(-c2ccccc2)o1", "values": [
      {"measurement": "AC50", "setting": "[1]", "result": "2 µM [falling, full curve]"}
    ]},
    {"smiles": "COc1ccc(CNC(=O)c2ccc(NC(=O)N3CCSc4ccccc43)cc2)cc1", "values": [
      {"measurement": "AC50", "setting": "[1]", "result": "25.1 µM [falling, single point]"}
    ]},
    {"smiles": "Cc1cc2c(=O)n(Cc3ccco3)c(SCC(=O)c3ccc(Cl)s3)nc2s1", "values": [
      {"measurement": "AC50", "setting": "[1]", "result": "5.01 µM [falling, partial curve]"}
    ]},
    {"smiles": "Nn1c(SCC(=O)Nc2ccc(F)cc2F)nnc1C1CCCCC1", "values": [
      {"measurement": "AC50", "setting": "[1]", "result": "0.316 µM [falling, full curve]"}
    ]},
    {"smiles": "CCC(C(=O)N1CCN(c2cc(C)ccc2C)CC1)n1nc(C)n2c(cc3occc32)c1=O", "note": "(stereo not given)", "values": [
      {"measurement": "AC50", "setting": "[1]", "result": "25.1 µM [falling, single point]"}
    ]},
    {"smiles": "Cc1nc2sc(C(c3ccco3)N3CCC(C)CC3)c(O)n2n1", "note": "(stereo not given)", "values": [
      {"measurement": "AC50", "setting": "measured here: IkB-luc green channel", "result": "15.8 µM [rising, partial curve]"},
      {"measurement": "AC50", "setting": "measured here: control luc red channel", "result": "6.31 µM [falling, partial curve]"}
    ]},
    {"smiles": "Cc1ccc2c(CN3CCN(C(=O)c4ccc(Br)cc4)CC3)cc(=O)oc2c1", "values": [
      {"measurement": "AC50", "setting": "[1]", "result": "20 µM [falling, partial curve]"}
    ]},
    {"smiles": "CCOc1ccc(NC(=O)C2CCCN(c3nnc(C)c4c(C)n(-c5ccccc5)nc34)C2)cc1", "note": "(stereo not given)", "values": [
      {"measurement": "AC50", "setting": "[1]", "result": "39.8 µM [falling, single point]"}
    ]},
    {"smiles": "Cn1c(Sc2ccc(-c3cccnc3)n2C)ccc1-c1cccnc1", "values": [
      {"measurement": "AC50", "setting": "[1]", "result": "6.31 µM [rising, single point] [measured here: IkB-luc green channel]"}
    ]},
    {"smiles": "O=C(Nc1nccs1)C1CCCN(S(=O)(=O)c2cccc3cccnc23)C1", "note": "(stereo not given)", "values": [
      {"measurement": "AC50", "setting": "[1]", "result": "10 µM [falling, partial curve]"}
    ]},
    {"smiles": "Cc1ccc(CNC(=O)CCNS(=O)(=O)c2cccc3nsnc23)cc1", "values": [
      {"measurement": "AC50", "setting": "[1]", "result": "12.6 µM [falling, partial curve]"}
    ]},
    {"smiles": "CCn1cc(C(=O)N(C)c2ccc(C(C)C)cc2)c2cc(OC)c(OC)cc2c1=O", "values": [
      {"measurement": "AC50", "setting": "[1]", "result": "12.6 µM [falling, partial curve, poor fit]"}
    ]},
    {"smiles": "COc1ccc(C2CC(=O)c3c(C)nc(N4CCN(Cc5ccccc5)CC4)nc3C2)cc1OC", "note": "(stereo not given)", "values": [
      {"measurement": "AC50", "setting": "[1]", "result": "5.01 µM [falling, full curve, poor fit]"}
    ]},
    {"smiles": "CCCN(CCC)CC(O)Cn1cc(/C=C/C(=O)c2ccc(Br)cc2)c2ccccc21", "note": "(stereo not given)", "values": [
      {"measurement": "AC50", "setting": "[1]", "result": "6.31 µM [falling, partial curve]"}
    ]}
  ]
}
